Values from PubChem BioAssay AID1224826 (NIAID, 2016).
Purpose: 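Knock-downs that raise or lower Tnf reporter signal after endotoxin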 (primary screen). Cell system: RAW264.7 G9 macrophages from mouse bearing reporters for p65 (GFP) and the Tnf promoter (mCherry). Knock-down reagent: siRNA pool against mouse genes, 100 nM. Time to read-out: 16 h of LPS stimulation, after 2 days of siRNA transfection. Treatment: bacterial lipopolysaccharide (Salmonella minnesota R595), 10 ng/ml. Measured: 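Nuclear mCherry signal of the Tnf promoter reporter measured by imaging after background removal, scaled to each plate median and turned into robust z-scores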. Scale: Tnf reporter robust z-score: higher = stronger Tnf promoter reporter signal after LPS. Call rule: 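Called active when robust z-score is at most -1.3, matching the median of the Tlr4 knock-down control, or over 3; control wells and wells with under 50 cells never active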. Meaning of the calls: active = Tnf reporter clearly lowered or raised; inactive = no clear change in Tnf reporter.
Here is one part, drawn at random, of about 17,000 deposited reagents. Over the whole deposit, about 1,110 (6.6%) got an active call. 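Active means lowered or raised reporter signal; replicate intensities are raw and not normalised per plate.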 Unmarked entries are inactive. Not all columns of the deposit are shown.

How did the screen score Pik3c2a?
Tnf reporter robust z-score: -0.5; fewer than 50 cells in well: enough cells in well

For Hbs1l (Hbs1-like (S. cerevisiae)), what does the deposit list?
Tnf reporter robust z-score: -0.39; fewer than 50 cells in well: enough cells in well

With Pax2 (paired box 2), how do the results read?
Tnf reporter robust z-score: -0.76; fewer than 50 cells in well: enough cells in well

With Slc39a14, how do the results read?
fewer than 50 cells in well: fewer than 50 cells per well; well left out of calls

What did the screen give for Daw1 (dynein assembly factor with WDR repeat domains 1)?
Tnf reporter robust z-score: -1.36 (active); fewer than 50 cells in well: enough cells in well

How did the screen score Pqbp1 (polyglutamine binding protein 1)?
fewer than 50 cells in well: fewer than 50 cells per well; well left out of calls

What is on record for Gabpb1 (GA repeat binding protein, beta 1)?
Tnf reporter robust z-score: -1; fewer than 50 cells in well: enough cells in well

What is on record for Eif3j1 (eukaryotic translation initiation factor 3, subunit J1)?
Tnf reporter robust z-score: -0.94; fewer than 50 cells in well: enough cells in well

What is on record for Gorasp2 (golgi reassembly stacking protein 2)?
Tnf reporter robust z-score: 0.29; fewer than 50 cells in well: enough cells in well

Which result is listed for Il21r (interleukin 21 receptor)?
Tnf reporter robust z-score: -0.71; fewer than 50 cells in well: enough cells in well

Which result is listed for Uxs1 (UDP-glucuronate decarboxylase 1)?
Tnf reporter robust z-score: -0.18; fewer than 50 cells in well: enough cells in well

With Hps1 (HPS1, biogenesis of lysosomal organelles complex 3 subunit 1), what was measured?
Tnf reporter robust z-score: 0.29; fewer than 50 cells in well: enough cells in well

With Apoa1 (apolipoprotein A-I), what does the deposit list?
Tnf reporter robust z-score: 1.67; fewer than 50 cells in well: enough cells in well

For Ppib (peptidylprolyl isomerase B), what does the deposit list?
Tnf reporter robust z-score: 0.91; fewer than 50 cells in well: enough cells in well

With Or51k1 (olfactory receptor family 51 subfamily K member 1), how do the results read?
Tnf reporter robust z-score: 1.54; fewer than 50 cells in well: enough cells in well

For Senp7 (SUMO1/sentrin specific peptidase 7), what does the deposit list?
Tnf reporter robust z-score: 1.11; fewer than 50 cells in well: enough cells in well

For Tmem167b (transmembrane protein 167B), what was measured?
Tnf reporter robust z-score: 0.32; fewer than 50 cells in well: enough cells in well

With U2af1l4 (U2 small nuclear RNA auxiliary factor 1-like 4), what does the deposit list?
fewer than 50 cells in well: fewer than 50 cells per well; well left out of calls

What did the screen give for Sema4d?
Tnf reporter robust z-score: 0.11; fewer than 50 cells in well: enough cells in well

Which result is listed for Itga3 (integrin alpha 3)?
Tnf reporter robust z-score: -0.14; fewer than 50 cells in well: enough cells in well

What is on record for Lrrc39 (leucine rich repeat containing 39)?
Tnf reporter robust z-score: -0.57; fewer than 50 cells in well: enough cells in well

Copied from the listing for reference:
Itga3 (integrin alpha 3) — Tnf reporter robust z-score: -0.14; fewer than 50 cells in well: enough cells in well
Lrrc39 (leucine rich repeat containing 39) — Tnf reporter robust z-score: -0.57; fewer than 50 cells in well: enough cells in well
